Patent US11021711B2, “Genetic variations associated with drug resistance” (GENENTECH, Inc., priority 2008, dated 2021)
Some of these results come from one statement about several compounds together. At least one structure is not confirmed: it was looked up by name or label, or the drawing left a doubt. Square brackets hold non-standard residues; d marks the D form. Peptide text beside a SMILES is read from it. * marks the point of attachment. Dolaproine = CO[C@@H]([C@@H]1CCCN1)[C@@H](C)C(=O)O; Dil = CC[C@H](C)[C@H](NC)[C@@H](CC(=O)O)OC; X1 = C[C@@H](N*)[C@@H](O)c1ccccc1; NMeV = CN[C@H](C(=O)O)C(C)C

Assays:
[1] = test system: AU565; test: Celltiter-Glo Luminescent Cell Viability Assay, AU565; assay type: cell-based, human; conditions: AU565, 72 hours; read-out: classification in the bioinformatic analysis (IC50 cell viability), MMAE
Experimental: (§1) For MMAE and paclitaxel IC50 determination, cells were plated in quadruplicate at a density of 3000 cells per well in 384-well plates in normal growth medium and allowed to adhere overnight. Paclitaxel (Sigma) or MMAE (Seattle Genetics, Seattle, Wash.) were added in 10 concentrations based on a three-fold dilution series (1 μmol/L maximal paclitaxel or 0.1 μmol/L maximal for MMAE).
(§2) Cell viability was measured 72 hours later using the Celltiter-Glo Luminescent Cell Viability Assay (Promega, Madison, Wis.). The concentration of drug resulting in the 50% inhibition of cell viability (IC50) was calculated from a four-parameter curve analysis (XLfit, 1DSS software) and was determined from a minimum of three experiments. […] FIG. 6 provides examples of representative cell viability experiments for six cell lines. Cell lines EFM192A, NDAMB361, and BT474 were classified as resistant to each agent in the bioinformatic analysis. AU565, EFM19, and MDAMB468 were classified as sensitive. IC50 values from fitted curves are shown in the charts to the right of each graph.

[2] = test system: MDAMB468; test: Celltiter-Glo Luminescent Cell Viability Assay, MDAMB468; assay type: cell-based, human; conditions: MDAMB468, 72 hours; read-out: classification in the bioinformatic analysis (IC50 cell viability), MMAE
Experimental: as §1, §2

[3] = test system: EFM19; test: Celltiter-Glo Luminescent Cell Viability Assay, EFM19; assay type: cell-based, human; conditions: EFM19, 72 hours; read-out: classification in the bioinformatic analysis (IC50 cell viability), MMAE
Experimental: as §1, §2

[4] = test system: ABCC3-overexpressing EVSA-T cells; test: ATP-based luminescence viability assay, ABCC3-overexpressing EVSA-T clones; design: species or system human; conditions: all three overexpressing cell lines vs vector-alone control
Excerpt: The control cell line in FIG. 5 is in fact a clone of EVSA-T derived after transfection with an empty vector and in the particular experiment shown achieved an IC50.
For ABCC3 overexpression experiments a full length ABCC3 cDNA cloned in the CMV promoter containing vector pCMV5 (Invitrogen, Carlsbad, Calif.) was verified by sequencing the entire coding sequence. The construct was transfected into EVSA-T cells and stable clones were selected by growth in lmg/ml geneticin (Invitrogen Carlsbad, Calif.). Overexpression of ABCC3 in stable clones was confirmed by qRT-PCR on cDNA derived from lines containing pCMV5-ABCC3, pCMV5 vector alone, or the parental EVSA-T strain. All stable cell lines described in this report were determined in qRT-PCR experiments to express at least 25-35× more ABCC3 transcript than vector control lines or the parental cell line.
Three independently derived lines were confirmed to overexpress ABCC3 transcripts and screened for in vitro sensitivity to paclitaxel and MMAE using an ATP-based luminescence assay. […] The EC50 for the vector control treated with paclitaxel was 0.2 nM while the EC50 values for the ABCC3-expressing lines were 5 nM, 10 nM, and 80 nM, respectively.
EVSA-T cells were stably transfected with an ABCC3 containing plasmid where ABCC3 is expressed at high levels from a cytomegalovirus (CMV) promoter. Overexpression of ABCC3 was confirmed by qRT-PCR.

## CC[C@H](C)[C@@H]([C@@H](CC(=O)N1CCC[C@H]1[C@H](OC)[C@@H](C)C(=O)N[C@H](C)[C@@H](O)c1ccccc1)OC)N(C)C(=O)[C@@H](NC(=O)[C@@H](NC)C(C)C)C(C)C [MMAE, monomethyl auristatin E] (H-[NMeV]V[Dil][Dolaproine]-X1)
[1]
  IC50: < 10 nM
[2]
  IC50: < 10 nM
[3]
  IC50: < 10 nM
[4]
  fold less sensitive based on EC50 values: at least 20 fold
